Results deposited as PubChem BioAssay AID1224830 (NIAID, 2016)

- Screen: 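Regulators of TLR4 signalling towards TNF-alpha in macrophage-like cells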 (primary screen)
- Cell system: human THP-1 monocytic leukaemia cells, TNF dual-luciferase reporter clone, PMA-differentiated to macrophage-like cells
- Reagent: siRNA pool against human genes, 50 nM
- Timing: LPS for 4 h, given about 3 days after siRNA transfection
- Treatment: bacterial LPS (TLR4 ligand), 10 ng/ml
- Measured: 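TNF firefly reporter luminescence divided by renilla, normalised to the plate median, then turned into a robust z-score for each replicate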
- Reading the numbers: TNF reporter robust z-score: higher = stronger TNF reporter response to LPS
- Hit rule: 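a well is active when its z-score exceeds 2.8 or falls below -1.5; control wells carry no call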
The deposit covers about 18,000 reagents; shown is an unselected part. Of all reagents, about 2,900 (16%) got an active call. 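Calls are made per well; low scores hint the gene aids the LPS response, high scores that it dampens it.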 Repeated entries: four replicate wells of each siRNA pool. Reagent sequences are not shown.

gene	PubChem SID	TNF reporter robust z-score	activity call
DCUN1D2 (defective in cullin neddylation 1 domain containing 2)	SID315457497	4.79	active
DCUN1D2 (defective in cullin neddylation 1 domain containing 2)	SID315457497	0.16	inactive
DCUN1D2 (defective in cullin neddylation 1 domain containing 2)	SID315457497	2.12	inactive
DCUN1D2 (defective in cullin neddylation 1 domain containing 2)	SID315457497	0.38	inactive
PSENEN (presenilin enhancer, gamma-secretase subunit)	SID315457908	-0.37	inactive
PSENEN (presenilin enhancer, gamma-secretase subunit)	SID315457908	1.49	inactive
PSENEN (presenilin enhancer, gamma-secretase subunit)	SID315457908	0	inactive
PSENEN (presenilin enhancer, gamma-secretase subunit)	SID315457908	0.58	inactive
ATP5MC1 (ATP synthase membrane subunit c locus 1)	SID315447472	-0.23	inactive
ATP5MC1 (ATP synthase membrane subunit c locus 1)	SID315447472	-0.27	inactive
ATP5MC1 (ATP synthase membrane subunit c locus 1)	SID315447472	0.56	inactive
ATP5MC1 (ATP synthase membrane subunit c locus 1)	SID315447472	0.27	inactive
SLC49A3	SID315460226	-0.12	inactive
SLC49A3	SID315460226	-0.48	inactive
SLC49A3	SID315460226	0.12	inactive
SLC49A3	SID315460226	-0.44	inactive
STT3B (STT3 oligosaccharyltransferase complex catalytic subunit B)	SID315463083	0.35	inactive
STT3B (STT3 oligosaccharyltransferase complex catalytic subunit B)	SID315463083	0.84	inactive
STT3B (STT3 oligosaccharyltransferase complex catalytic subunit B)	SID315463083	0.63	inactive
STT3B (STT3 oligosaccharyltransferase complex catalytic subunit B)	SID315463083	1.89	inactive
HJV (hemojuvelin BMP co-receptor)	SID315462388	0.21	inactive
HJV (hemojuvelin BMP co-receptor)	SID315462388	0.34	inactive
HJV (hemojuvelin BMP co-receptor)	SID315462388	-0.39	inactive
HJV (hemojuvelin BMP co-receptor)	SID315462388	-0.71	inactive
KDM1A (lysine demethylase 1A)	SID315454938	0.03	inactive
KDM1A (lysine demethylase 1A)	SID315454938	0.51	inactive
KDM1A (lysine demethylase 1A)	SID315454938	-0.59	inactive
KDM1A (lysine demethylase 1A)	SID315454938	1.08	inactive
RFPL4B (ret finger protein like 4B)	SID315464969	0.73	inactive
RFPL4B (ret finger protein like 4B)	SID315464969	-1.06	inactive
RFPL4B (ret finger protein like 4B)	SID315464969	-0.09	inactive
RFPL4B (ret finger protein like 4B)	SID315464969	-0.51	inactive
ADGRL1 (adhesion G protein-coupled receptor L1)	SID315454823	0.73	inactive
ADGRL1 (adhesion G protein-coupled receptor L1)	SID315454823	0.89	inactive
ADGRL1 (adhesion G protein-coupled receptor L1)	SID315454823	2.37	inactive
GRIPAP1 (GRIP1 associated protein 1)	SID315458125	3.5	active
GRIPAP1 (GRIP1 associated protein 1)	SID315458125	4.96	active
GRIPAP1 (GRIP1 associated protein 1)	SID315458125	1.74	inactive
GRIPAP1 (GRIP1 associated protein 1)	SID315458125	1.44	inactive
IHH (Indian hedgehog signaling molecule)	SID315449447	0.61	inactive
IHH (Indian hedgehog signaling molecule)	SID315449447	0.77	inactive
IHH (Indian hedgehog signaling molecule)	SID315449447	0.13	inactive
IHH (Indian hedgehog signaling molecule)	SID315449447	0.57	inactive
NACC2 (NACC family member 2)	SID315462037	-0.06	inactive
NACC2 (NACC family member 2)	SID315462037	-0.58	inactive
NACC2 (NACC family member 2)	SID315462037	-0.28	inactive
NACC2 (NACC family member 2)	SID315462037	-0.3	inactive
ZNF805 (zinc finger protein 805)	SID315464668	0.35	inactive
ZNF805 (zinc finger protein 805)	SID315464668	0.28	inactive
ZNF805 (zinc finger protein 805)	SID315464668	-0.42	inactive
ZNF805 (zinc finger protein 805)	SID315464668	0.49	inactive
KCNG3	SID315462918	0.6	inactive
KCNG3	SID315462918	-0.7	inactive
KCNG3	SID315462918	-0.2	inactive
KCNG3	SID315462918	-1.52	active
HCK (HCK proto-oncogene, Src family tyrosine kinase)	SID315449165	-0.07	inactive
HCK (HCK proto-oncogene, Src family tyrosine kinase)	SID315449165	-0.09	inactive
HCK (HCK proto-oncogene, Src family tyrosine kinase)	SID315449165	3.33	active
HCK (HCK proto-oncogene, Src family tyrosine kinase)	SID315449165	0.92	inactive
NUDCD3 (NudC domain containing 3)	SID315455203	-0.12	inactive
NUDCD3 (NudC domain containing 3)	SID315455203	0.38	inactive
NUDCD3 (NudC domain containing 3)	SID315455203	0.04	inactive
NUDCD3 (NudC domain containing 3)	SID315455203	1.2	inactive
SCN10A (sodium voltage-gated channel alpha subunit 10)	SID315451318	-0.67	inactive
SCN10A (sodium voltage-gated channel alpha subunit 10)	SID315451318	-0.31	inactive
SCN10A (sodium voltage-gated channel alpha subunit 10)	SID315451318	0.7	inactive
SCN10A (sodium voltage-gated channel alpha subunit 10)	SID315451318	0.41	inactive
LINC00471 (long independently transcribed non-coding RNA 471)	SID315462495	0.44	inactive
LINC00471 (long independently transcribed non-coding RNA 471)	SID315462495	-0.08	inactive
LINC00471 (long independently transcribed non-coding RNA 471)	SID315462495	1.01	inactive
LINC00471 (long independently transcribed non-coding RNA 471)	SID315462495	1.35	inactive
DBNL (drebrin like)	SID315456101	-0.18	inactive
DBNL (drebrin like)	SID315456101	0.69	inactive
DBNL (drebrin like)	SID315456101	-0.26	inactive
DBNL (drebrin like)	SID315456101	0.92	inactive
ST3GAL2 (ST3 beta-galactoside alpha-2,3-sialyltransferase 2)	SID315451427	-1.78	active
ST3GAL2 (ST3 beta-galactoside alpha-2,3-sialyltransferase 2)	SID315451427	-0.59	inactive
ST3GAL2 (ST3 beta-galactoside alpha-2,3-sialyltransferase 2)	SID315451427	-1.18	inactive
ST3GAL2 (ST3 beta-galactoside alpha-2,3-sialyltransferase 2)	SID315451427	-0.47	inactive
PALS2 (protein associated with LIN7 2, MAGUK p55 family member)	SID315456844	0.54	inactive
PALS2 (protein associated with LIN7 2, MAGUK p55 family member)	SID315456844	0.72	inactive
PALS2 (protein associated with LIN7 2, MAGUK p55 family member)	SID315456844	0.1	inactive
PALS2 (protein associated with LIN7 2, MAGUK p55 family member)	SID315456844	-0.2	inactive
PGP (phosphoglycolate phosphatase)	SID315463711	0.87	inactive
PGP (phosphoglycolate phosphatase)	SID315463711	-0.1	inactive
PGP (phosphoglycolate phosphatase)	SID315463711	-1.08	inactive
PGP (phosphoglycolate phosphatase)	SID315463711	-0.42	inactive
COQ10A (coenzyme Q10A)	SID315461052	-0.14	inactive
COQ10A (coenzyme Q10A)	SID315461052	-0.42	inactive
COQ10A (coenzyme Q10A)	SID315461052	0.19	inactive

Called active, among the entries above:
gene	PubChem SID	TNF reporter robust z-score	activity call
DCUN1D2 (defective in cullin neddylation 1 domain containing 2)	SID315457497	4.79	active
GRIPAP1 (GRIP1 associated protein 1)	SID315458125	3.5	active
GRIPAP1 (GRIP1 associated protein 1)	SID315458125	4.96	active
KCNG3	SID315462918	-1.52	active
HCK (HCK proto-oncogene, Src family tyrosine kinase)	SID315449165	3.33	active
ST3GAL2 (ST3 beta-galactoside alpha-2,3-sialyltransferase 2)	SID315451427	-1.78	active

Further reagents follow:
gene	PubChem SID	TNF reporter robust z-score	activity call
PSEN2 (presenilin 2)	SID315450872	0.11	inactive
PSEN2 (presenilin 2)	SID315450872	-0.65	inactive
PSEN2 (presenilin 2)	SID315450872	0.28	inactive
PSEN2 (presenilin 2)	SID315450872	-0.89	inactive
MTO1 (mitochondrial tRNA translation optimization 1)	SID315455486	-1.08	inactive
MTO1 (mitochondrial tRNA translation optimization 1)	SID315455486	-0.98	inactive
MTO1 (mitochondrial tRNA translation optimization 1)	SID315455486	-0.78	inactive
MTO1 (mitochondrial tRNA translation optimization 1)	SID315455486	-1.36	inactive
CFDP1 (chromatin remodeling protein CFDP1)	SID315454080	-1.36	inactive
CFDP1 (chromatin remodeling protein CFDP1)	SID315454080	-1.12	inactive
CFDP1 (chromatin remodeling protein CFDP1)	SID315454080	-1.49	inactive
CFDP1 (chromatin remodeling protein CFDP1)	SID315454080	-1.11	inactive
PDE4D (phosphodiesterase 4D)	SID315450477	0.8	inactive
PDE4D (phosphodiesterase 4D)	SID315450477	-0.52	inactive
PDE4D (phosphodiesterase 4D)	SID315450477	-0.55	inactive
PDE4D (phosphodiesterase 4D)	SID315450477	0	inactive
TRA2B (transformer 2 beta homolog)	SID315451392	-0.81	inactive
TRA2B (transformer 2 beta homolog)	SID315451392	-0.84	inactive
TRA2B (transformer 2 beta homolog)	SID315451392	-0.52	inactive
TRA2B (transformer 2 beta homolog)	SID315451392	0.07	inactive
FAM234B (family with sequence similarity 234 member B)	SID315458503	1.71	inactive
FAM234B (family with sequence similarity 234 member B)	SID315458503	2.42	inactive
FAM234B (family with sequence similarity 234 member B)	SID315458503	2.4	inactive
FAM234B (family with sequence similarity 234 member B)	SID315458503	2.3	inactive
GMPPA (GDP-mannose pyrophosphorylase A)	SID315456221	0.41	inactive
GMPPA (GDP-mannose pyrophosphorylase A)	SID315456221	1.09	inactive
GMPPA (GDP-mannose pyrophosphorylase A)	SID315456221	1.85	inactive
GMPPA (GDP-mannose pyrophosphorylase A)	SID315456221	0.06	inactive
SLC5A11	SID315461316	-0.32	inactive
SLC5A11	SID315461316	0.28	inactive
SLC5A11	SID315461316	-0.34	inactive
SLC5A11	SID315461316	-0.41	inactive
BCCIP (BRCA2 and CDKN1A interacting protein)	SID315458093	-1.29	inactive
BCCIP (BRCA2 and CDKN1A interacting protein)	SID315458093	0.18	inactive
BCCIP (BRCA2 and CDKN1A interacting protein)	SID315458093	-0.45	inactive
BCCIP (BRCA2 and CDKN1A interacting protein)	SID315458093	-0.7	inactive
C6orf136 (chromosome 6 open reading frame 136)	SID315463307	-0.57	inactive
C6orf136 (chromosome 6 open reading frame 136)	SID315463307	-1.5	inactive
C6orf136 (chromosome 6 open reading frame 136)	SID315463307	-0.94	inactive
C6orf136 (chromosome 6 open reading frame 136)	SID315463307	-0.27	inactive
RNF217 (ring finger protein 217)	SID315462586	-0.61	inactive
RNF217 (ring finger protein 217)	SID315462586	0.08	inactive
RNF217 (ring finger protein 217)	SID315462586	-0.37	inactive
RNF217 (ring finger protein 217)	SID315462586	0.42	inactive
RAD54L2 (RAD54 like 2)	SID315455013	0.15	inactive
RAD54L2 (RAD54 like 2)	SID315455013	0.88	inactive
RAD54L2 (RAD54 like 2)	SID315455013	-0.12	inactive
RAD54L2 (RAD54 like 2)	SID315455013	0	inactive
ZNF358 (zinc finger protein 358)	SID315462100	0.34	inactive
ZNF358 (zinc finger protein 358)	SID315462100	-0.86	inactive
ZNF358 (zinc finger protein 358)	SID315462100	0.19	inactive
ZNF358 (zinc finger protein 358)	SID315462100	-0.44	inactive
